Laboratory results: PMC10565641
No constants are given. Whether binding was seen depends on the method and setting. Binding seen in cells or lysates may run through a third protein. Some entries that bind do so weakly or less than the wild type. One block for each substance: values may come before it.

Protein sequences, listed by entry. Tags and fused reporters are not part of them.
UniProt Q9NQB0: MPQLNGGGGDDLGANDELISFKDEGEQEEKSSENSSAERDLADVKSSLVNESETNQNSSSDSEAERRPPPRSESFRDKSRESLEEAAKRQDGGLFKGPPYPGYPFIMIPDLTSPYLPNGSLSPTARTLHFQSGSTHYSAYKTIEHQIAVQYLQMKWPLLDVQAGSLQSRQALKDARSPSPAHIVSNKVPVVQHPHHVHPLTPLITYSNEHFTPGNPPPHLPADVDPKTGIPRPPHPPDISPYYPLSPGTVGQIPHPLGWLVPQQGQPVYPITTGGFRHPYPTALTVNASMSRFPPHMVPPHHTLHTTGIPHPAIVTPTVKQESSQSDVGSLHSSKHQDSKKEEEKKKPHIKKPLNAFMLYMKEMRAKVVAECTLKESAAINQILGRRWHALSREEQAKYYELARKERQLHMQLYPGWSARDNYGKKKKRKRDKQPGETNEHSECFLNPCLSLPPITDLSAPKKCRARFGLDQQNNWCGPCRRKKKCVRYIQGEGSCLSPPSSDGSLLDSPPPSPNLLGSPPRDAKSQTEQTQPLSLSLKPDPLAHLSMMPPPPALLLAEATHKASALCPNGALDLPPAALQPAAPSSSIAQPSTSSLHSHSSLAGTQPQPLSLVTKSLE
UniProt Q969H0: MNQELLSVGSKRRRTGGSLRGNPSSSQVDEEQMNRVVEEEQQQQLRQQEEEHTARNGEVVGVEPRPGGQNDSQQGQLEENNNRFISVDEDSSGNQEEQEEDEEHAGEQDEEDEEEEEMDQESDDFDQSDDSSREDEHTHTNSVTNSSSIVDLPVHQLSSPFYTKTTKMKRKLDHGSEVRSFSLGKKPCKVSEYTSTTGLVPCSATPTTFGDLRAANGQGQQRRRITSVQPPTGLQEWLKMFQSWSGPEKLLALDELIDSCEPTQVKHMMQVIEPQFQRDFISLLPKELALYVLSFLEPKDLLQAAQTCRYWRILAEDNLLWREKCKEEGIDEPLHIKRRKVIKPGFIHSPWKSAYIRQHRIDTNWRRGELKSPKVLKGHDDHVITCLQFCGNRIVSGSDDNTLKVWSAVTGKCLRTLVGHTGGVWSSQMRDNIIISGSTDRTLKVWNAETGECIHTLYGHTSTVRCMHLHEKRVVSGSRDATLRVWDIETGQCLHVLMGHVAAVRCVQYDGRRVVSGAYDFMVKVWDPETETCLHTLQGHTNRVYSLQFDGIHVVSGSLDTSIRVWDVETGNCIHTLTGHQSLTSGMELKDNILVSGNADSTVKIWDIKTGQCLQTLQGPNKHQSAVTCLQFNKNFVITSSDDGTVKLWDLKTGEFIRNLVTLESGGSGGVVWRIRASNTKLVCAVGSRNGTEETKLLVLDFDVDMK
UniProt Q9UJU2: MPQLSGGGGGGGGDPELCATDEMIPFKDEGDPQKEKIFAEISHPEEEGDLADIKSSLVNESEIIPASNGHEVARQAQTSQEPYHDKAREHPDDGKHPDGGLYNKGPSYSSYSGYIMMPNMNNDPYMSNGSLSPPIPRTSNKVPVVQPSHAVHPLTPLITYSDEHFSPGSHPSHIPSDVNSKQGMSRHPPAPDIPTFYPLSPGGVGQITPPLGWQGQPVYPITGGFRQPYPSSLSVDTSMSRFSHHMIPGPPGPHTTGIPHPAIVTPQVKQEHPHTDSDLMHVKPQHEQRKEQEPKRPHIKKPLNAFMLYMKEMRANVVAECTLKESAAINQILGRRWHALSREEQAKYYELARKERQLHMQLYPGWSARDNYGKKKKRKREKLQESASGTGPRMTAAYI
UniProt P35222: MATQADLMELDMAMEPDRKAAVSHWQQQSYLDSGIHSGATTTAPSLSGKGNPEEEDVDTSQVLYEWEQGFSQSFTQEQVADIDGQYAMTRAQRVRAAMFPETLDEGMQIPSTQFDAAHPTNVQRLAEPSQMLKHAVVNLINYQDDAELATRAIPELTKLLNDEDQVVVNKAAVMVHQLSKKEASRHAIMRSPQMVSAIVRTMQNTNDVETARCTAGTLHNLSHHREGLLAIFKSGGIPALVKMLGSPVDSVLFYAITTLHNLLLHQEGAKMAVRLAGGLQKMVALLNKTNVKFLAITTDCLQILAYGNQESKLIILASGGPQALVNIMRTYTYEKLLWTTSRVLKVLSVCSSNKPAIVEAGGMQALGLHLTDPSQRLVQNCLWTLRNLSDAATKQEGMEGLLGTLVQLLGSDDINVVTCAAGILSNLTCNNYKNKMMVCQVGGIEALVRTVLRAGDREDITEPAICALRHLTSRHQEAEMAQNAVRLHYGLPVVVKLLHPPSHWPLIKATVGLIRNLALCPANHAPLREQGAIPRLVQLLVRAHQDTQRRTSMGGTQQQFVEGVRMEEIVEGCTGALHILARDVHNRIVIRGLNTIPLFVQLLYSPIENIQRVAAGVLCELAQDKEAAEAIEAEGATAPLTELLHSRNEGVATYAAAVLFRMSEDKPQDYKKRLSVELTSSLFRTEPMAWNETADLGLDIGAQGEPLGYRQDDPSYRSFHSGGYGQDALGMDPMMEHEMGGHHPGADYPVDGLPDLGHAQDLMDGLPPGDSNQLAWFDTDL

How the values were obtained:
Experiment in all cases: co-IP; HEK293T cells co-transfected with tagged constructs; benzonase lysis buffer, KCl to 450 mM then diluted to 150 mM; anti-FLAG M2 magnetic beads 2 h; five washes with 100 mM KCl at 4°C; immunoblot for tagged or indicated proteins
[1] = biological target: FLAG-V5-tagged TCF7L2 (human) (UniProt Q9NQB0)
[2] = biological target: FLAG-V5-tagged FBXW7α, wild type (human) (UniProt Q969H0)
[3] = biological target: FLAG-V5-tagged full length LEF1 (human) (UniProt Q9UJU2)

binding [1]: binds
Substance: Myc-tagged FBXW7α (from UniProt Q969H0 1-707)

binding [2]: binds
Substance: Myc-tagged TCF7L2 (from UniProt Q9NQB0 1-619)

binding [3]: binds
Substance: β-catenin (from UniProt P35222 1-781)
